The list shows a part of the results.
Key:
Experiment in all cases: log2 fold change, soluble protein after heating vs DMSO (PISA); higher = thermal stabilisation; K562 cells, 10 uM, 30 min; active = over 0.2 and 3.5 SD of the protein, either way, in both replicates (recomputed)
[1] = compound: CN1CCN(CCOc2cc(OC3CCOCC3)c3c(Nc4c(Cl)ccc5c4OCO5)ncnc3c2)CC1 [saracatinib]
In short: (§1)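 K562 cells at 2×10^6 cells/mL were treated with 10 μM compound for 30 min. Aliquots were heated for 3 min across 48°C-58°C, pooled, and extracted in PBS with 0.5% NP-40 at 4°C; soluble protein was the supernatant after 21,000xg for 90 min. Soluble protein was quantified by TMTpro 16plex LC-MS/MS with channel sums equalised, and reported as log2 fold change in thermal stability against DMSO controls, with values from duplicates.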

Sequences of proteins named here, by UniProt entry; tags and fusion partners are left off. A change or cut given only in a name is not applied to a line headed by its entry.
UniProt Q04864: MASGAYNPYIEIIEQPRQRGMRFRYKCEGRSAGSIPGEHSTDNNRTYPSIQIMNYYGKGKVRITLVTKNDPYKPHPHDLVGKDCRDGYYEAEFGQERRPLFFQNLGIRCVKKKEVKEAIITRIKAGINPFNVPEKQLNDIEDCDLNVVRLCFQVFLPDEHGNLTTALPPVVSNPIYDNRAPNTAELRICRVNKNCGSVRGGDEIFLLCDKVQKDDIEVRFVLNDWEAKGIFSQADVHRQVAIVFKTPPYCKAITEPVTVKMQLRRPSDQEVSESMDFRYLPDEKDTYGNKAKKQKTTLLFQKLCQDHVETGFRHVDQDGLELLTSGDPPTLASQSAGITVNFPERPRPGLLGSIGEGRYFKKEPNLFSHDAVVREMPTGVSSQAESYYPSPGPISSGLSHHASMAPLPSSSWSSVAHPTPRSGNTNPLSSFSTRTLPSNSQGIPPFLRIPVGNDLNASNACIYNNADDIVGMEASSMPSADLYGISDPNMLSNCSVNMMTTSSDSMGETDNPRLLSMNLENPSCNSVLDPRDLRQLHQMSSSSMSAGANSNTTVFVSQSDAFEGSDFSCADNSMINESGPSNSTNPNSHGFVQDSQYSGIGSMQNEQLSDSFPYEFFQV
UniProt Q86VR2, whole entry, looked up: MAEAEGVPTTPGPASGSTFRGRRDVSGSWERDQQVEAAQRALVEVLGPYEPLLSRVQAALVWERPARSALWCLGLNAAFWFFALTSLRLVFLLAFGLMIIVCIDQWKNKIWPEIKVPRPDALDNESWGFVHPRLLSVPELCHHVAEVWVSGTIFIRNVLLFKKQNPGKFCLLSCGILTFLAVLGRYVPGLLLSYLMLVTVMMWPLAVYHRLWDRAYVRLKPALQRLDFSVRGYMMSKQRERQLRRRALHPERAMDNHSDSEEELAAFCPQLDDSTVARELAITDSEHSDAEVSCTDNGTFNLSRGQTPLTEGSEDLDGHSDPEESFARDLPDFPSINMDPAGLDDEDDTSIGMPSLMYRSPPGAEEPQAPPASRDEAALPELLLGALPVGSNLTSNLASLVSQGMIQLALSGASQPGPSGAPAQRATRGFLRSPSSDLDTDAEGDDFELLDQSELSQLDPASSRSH
UniProt P40938, whole entry, looked up: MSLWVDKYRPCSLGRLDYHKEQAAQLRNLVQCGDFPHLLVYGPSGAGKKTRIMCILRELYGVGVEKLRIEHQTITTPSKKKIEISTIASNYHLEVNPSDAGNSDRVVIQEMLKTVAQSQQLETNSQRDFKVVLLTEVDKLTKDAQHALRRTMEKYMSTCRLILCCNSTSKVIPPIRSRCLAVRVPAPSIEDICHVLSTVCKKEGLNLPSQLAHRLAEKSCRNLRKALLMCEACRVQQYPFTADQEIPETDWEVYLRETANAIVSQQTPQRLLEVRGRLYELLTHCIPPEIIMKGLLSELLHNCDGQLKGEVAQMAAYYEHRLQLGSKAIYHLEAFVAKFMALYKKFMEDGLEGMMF
UniProt Q14498: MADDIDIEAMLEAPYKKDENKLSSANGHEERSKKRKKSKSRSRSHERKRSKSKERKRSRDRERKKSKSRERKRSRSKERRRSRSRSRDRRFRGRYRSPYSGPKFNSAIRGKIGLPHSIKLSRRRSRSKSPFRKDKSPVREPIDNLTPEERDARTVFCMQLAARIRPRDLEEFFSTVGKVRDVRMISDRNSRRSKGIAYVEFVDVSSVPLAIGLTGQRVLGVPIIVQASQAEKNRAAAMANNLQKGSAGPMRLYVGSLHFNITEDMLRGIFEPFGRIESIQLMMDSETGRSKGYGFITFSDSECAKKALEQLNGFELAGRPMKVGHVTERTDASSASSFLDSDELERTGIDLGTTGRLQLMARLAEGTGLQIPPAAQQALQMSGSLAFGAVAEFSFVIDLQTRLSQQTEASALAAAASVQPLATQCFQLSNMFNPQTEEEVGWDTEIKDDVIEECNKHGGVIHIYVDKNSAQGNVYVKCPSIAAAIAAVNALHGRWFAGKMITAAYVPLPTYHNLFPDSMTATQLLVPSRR
UniProt Q8IYW5, whole entry, looked up: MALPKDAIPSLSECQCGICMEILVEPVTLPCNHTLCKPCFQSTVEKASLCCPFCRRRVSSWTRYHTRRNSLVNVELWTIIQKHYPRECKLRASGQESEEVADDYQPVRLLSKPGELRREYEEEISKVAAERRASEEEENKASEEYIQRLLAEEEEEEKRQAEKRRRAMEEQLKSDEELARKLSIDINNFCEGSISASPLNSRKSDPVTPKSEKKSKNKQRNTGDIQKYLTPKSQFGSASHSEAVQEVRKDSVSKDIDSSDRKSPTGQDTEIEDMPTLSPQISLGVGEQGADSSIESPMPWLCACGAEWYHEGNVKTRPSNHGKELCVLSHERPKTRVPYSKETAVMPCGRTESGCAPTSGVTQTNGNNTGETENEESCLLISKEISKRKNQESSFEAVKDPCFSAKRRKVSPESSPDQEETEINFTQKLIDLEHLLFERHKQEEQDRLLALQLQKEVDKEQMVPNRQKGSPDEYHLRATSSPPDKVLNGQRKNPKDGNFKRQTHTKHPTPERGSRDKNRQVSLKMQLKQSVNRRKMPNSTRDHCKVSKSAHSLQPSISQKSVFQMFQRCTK
UniProt P46063: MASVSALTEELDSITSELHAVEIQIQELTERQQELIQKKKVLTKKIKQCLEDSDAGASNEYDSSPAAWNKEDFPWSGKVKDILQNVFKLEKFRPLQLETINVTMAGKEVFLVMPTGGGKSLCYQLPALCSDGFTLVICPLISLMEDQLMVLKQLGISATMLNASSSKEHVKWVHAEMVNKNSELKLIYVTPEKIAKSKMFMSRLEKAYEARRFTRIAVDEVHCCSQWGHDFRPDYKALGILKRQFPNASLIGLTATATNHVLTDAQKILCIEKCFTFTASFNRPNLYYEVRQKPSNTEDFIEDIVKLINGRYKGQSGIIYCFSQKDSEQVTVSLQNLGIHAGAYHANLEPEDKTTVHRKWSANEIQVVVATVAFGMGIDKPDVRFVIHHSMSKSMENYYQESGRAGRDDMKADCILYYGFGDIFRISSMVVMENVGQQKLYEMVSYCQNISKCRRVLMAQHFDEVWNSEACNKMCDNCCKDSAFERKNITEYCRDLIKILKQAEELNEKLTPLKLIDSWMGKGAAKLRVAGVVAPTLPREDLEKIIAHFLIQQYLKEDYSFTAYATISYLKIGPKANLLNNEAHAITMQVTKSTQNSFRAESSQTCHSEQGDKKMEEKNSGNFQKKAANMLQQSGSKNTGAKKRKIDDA
UniProt Q5VTB9: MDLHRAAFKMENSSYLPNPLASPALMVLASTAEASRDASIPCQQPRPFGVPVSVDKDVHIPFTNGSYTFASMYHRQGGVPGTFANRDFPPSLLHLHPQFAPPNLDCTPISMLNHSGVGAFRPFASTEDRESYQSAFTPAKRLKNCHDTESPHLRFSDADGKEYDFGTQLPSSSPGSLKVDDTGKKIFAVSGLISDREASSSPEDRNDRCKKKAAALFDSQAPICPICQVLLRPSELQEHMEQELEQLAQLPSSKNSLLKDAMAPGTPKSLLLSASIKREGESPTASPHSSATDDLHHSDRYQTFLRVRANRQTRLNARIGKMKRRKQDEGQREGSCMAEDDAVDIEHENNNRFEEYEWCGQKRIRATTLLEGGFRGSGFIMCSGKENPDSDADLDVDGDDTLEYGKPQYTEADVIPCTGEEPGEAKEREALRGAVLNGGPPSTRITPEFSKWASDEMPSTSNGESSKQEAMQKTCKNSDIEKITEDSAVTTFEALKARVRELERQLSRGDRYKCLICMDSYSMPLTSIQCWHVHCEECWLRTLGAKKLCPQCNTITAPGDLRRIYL
UniProt Q6NUM9: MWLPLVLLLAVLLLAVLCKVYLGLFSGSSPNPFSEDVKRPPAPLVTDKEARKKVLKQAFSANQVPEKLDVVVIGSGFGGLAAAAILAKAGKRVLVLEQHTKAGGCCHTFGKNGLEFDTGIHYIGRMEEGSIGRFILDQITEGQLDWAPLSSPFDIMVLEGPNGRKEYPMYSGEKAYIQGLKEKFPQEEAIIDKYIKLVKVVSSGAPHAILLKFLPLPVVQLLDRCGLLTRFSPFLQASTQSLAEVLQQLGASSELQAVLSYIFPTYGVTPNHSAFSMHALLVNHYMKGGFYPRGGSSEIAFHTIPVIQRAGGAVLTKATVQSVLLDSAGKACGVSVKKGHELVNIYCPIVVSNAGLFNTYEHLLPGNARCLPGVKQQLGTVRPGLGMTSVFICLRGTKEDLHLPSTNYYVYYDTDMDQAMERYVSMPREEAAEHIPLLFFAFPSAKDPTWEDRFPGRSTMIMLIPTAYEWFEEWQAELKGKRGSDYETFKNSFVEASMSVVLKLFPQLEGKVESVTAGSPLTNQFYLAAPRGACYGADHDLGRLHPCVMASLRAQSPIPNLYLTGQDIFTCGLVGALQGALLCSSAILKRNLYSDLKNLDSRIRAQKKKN
UniProt Q5TA31: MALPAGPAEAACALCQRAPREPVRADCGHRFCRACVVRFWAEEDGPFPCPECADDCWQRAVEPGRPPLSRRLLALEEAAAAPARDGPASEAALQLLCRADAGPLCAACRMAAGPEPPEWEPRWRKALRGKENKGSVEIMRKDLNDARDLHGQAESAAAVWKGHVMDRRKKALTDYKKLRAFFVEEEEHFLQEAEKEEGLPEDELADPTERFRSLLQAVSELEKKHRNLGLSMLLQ
UniProt Q9BQY4: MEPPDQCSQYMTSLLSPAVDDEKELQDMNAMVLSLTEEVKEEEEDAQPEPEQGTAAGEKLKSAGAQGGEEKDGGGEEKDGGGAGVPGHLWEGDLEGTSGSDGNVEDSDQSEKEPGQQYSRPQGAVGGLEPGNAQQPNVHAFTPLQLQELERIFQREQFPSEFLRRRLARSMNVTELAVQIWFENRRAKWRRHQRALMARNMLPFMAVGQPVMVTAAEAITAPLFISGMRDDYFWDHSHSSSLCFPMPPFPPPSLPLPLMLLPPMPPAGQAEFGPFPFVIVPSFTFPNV
UniProt Q6NUQ1: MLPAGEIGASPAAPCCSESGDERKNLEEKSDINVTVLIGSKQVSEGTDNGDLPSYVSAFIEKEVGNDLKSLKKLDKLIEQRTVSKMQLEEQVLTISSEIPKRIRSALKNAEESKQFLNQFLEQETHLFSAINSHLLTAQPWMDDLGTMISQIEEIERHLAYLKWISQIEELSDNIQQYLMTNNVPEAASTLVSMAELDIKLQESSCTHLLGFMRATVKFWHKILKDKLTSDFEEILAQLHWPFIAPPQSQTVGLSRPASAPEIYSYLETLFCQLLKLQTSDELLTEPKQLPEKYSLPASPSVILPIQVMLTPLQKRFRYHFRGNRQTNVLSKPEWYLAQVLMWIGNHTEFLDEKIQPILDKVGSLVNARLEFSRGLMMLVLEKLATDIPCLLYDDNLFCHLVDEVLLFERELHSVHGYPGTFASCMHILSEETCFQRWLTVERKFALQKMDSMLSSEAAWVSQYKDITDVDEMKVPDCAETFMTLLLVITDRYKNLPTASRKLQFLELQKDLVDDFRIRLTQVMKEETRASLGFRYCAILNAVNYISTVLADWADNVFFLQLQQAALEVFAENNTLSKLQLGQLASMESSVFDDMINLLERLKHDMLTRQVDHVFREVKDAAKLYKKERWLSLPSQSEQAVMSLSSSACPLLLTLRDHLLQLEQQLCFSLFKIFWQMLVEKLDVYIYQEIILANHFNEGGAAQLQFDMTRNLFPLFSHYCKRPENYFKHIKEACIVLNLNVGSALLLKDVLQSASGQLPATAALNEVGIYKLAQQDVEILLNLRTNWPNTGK
UniProt Q9BWF3: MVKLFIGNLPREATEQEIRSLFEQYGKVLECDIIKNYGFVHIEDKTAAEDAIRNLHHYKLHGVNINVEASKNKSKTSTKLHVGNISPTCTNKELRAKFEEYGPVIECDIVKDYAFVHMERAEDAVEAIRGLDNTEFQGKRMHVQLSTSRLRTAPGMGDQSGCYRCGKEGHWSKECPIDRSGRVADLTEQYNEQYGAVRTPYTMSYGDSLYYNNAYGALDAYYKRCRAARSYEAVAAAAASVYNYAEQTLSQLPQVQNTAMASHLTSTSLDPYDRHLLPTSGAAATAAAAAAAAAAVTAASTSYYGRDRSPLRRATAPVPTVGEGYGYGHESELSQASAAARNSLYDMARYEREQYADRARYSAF
UniProt Q8TC12: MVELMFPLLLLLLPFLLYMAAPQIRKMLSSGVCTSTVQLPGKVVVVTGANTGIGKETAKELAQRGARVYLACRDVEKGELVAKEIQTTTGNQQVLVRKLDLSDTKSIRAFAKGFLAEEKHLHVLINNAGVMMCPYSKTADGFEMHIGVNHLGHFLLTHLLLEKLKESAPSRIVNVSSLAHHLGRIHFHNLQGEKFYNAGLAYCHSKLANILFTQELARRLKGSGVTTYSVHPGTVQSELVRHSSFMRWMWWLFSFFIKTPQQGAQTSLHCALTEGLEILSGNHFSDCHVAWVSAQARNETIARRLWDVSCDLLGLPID

[2] = compound: CN1CCN(c2nc(C3=C(c4c[nH]c5ccccc45)C(=O)NC3=O)c3ccccc3n2)CC1 [sotrastaurin]
In short: as §1

[3] = compound: CN1CCc2c(c3ccccc3n2Cc2ccc(C(=O)NO)cc2)C1 [Tubastatin A]
In short: as §1

[4] = compound: CNC(=O)C1=CC=CC=C1NC2=NC(=NC=C2Cl)NC3=C(C=C(C=C3)N4CCOCC4)OC
In short: as §1

[5] = compound: CNC(=O)c1ccc(Nc2ncc(C(F)(F)F)c(NCc3nccnc3N(C)S(C)(=O)=O)n2)cc1 [defactinib]
In short: as §1

[6] = compound: CNCc1ccc(-c2[nH]c3cc(F)cc4c3c2CCNC4=O)cc1 [rucaparib]
In short: as §1

[7] = compound: CNc1nc(-c2ccc3c(N)n[nH]c3c2)cc(N2C[C@@H](C(=O)NC3CCCCC3)CC[C@H]2C)n1
In short: as §1

[8] = compound: COC(=O)N[C@@H](C)CNc1nccc(-c2cn(C(C)C)nc2-c2cc(Cl)cc(NS(C)(=O)=O)c2F)n1 [encorafenib]
In short: as §1

[9] = compound: COC(=O)[C@H](CCSC)NC(=O)C1=C(C=C(C=C1)NC[C@H](CS)N)C2=CC=CC=C2
In short: as §1

[10] = compound: COC1=CC=C(C=C1)CN2C=CC3=C2C=C(C=C3)C(=O)NO
In short: as §1

[11] = compound: CON(C)C(=O)N1N=C(c2cc(F)ccc2F)S[C@@]1(CCCN)c1ccccc1 [filanesib]
In short: as §1

[12] = compound: CO[C@H]1C[C@@H]2CC[C@@H](C)[C@@](O)(O2)C(=O)C(=O)N2CCCC[C@H]2C(=O)O[C@H]([C@H](C)C[C@@H]2CC[C@H](n3cnnn3)[C@H](OC)C2)CC(=O)[C@H](C)/C=C(\C)[C@@H](O)[C@@H](OC)C(=O)[C@H](C)C[C@H](C)/C=C/C=C/C=C/1C [zotarolimus]
In short: as §1

[13] = compound: COc1cc(C(=O)O)ccc1NC(=O)[C@@H]1N[C@@H](CC(C)(C)C)[C@](C#N)(c2ccc(Cl)cc2F)[C@H]1c1cccc(Cl)c1F [idasanutlin]
In short: as §1

[14] = compound: COc1cc(Nc2ncc3c(n2)-c2ccc(Cl)cc2C(c2c(F)cccc2OC)=NC3)ccc1C(=O)O [alisertib]
In short: as §1

[15] = compound: COc1cc2nc(-c3cc(F)ccc3O)nc(N[C@@H]3CNC[C@H]3C(C)(C)O)c2cc1OC
In short: as §1

[16] = compound: COc1cc2ncnc(Nc3ccc(F)c(Cl)c3)c2cc1OCCCN1CCOCC1 [gefitinib]
In short: as §1

[17] = compound: COc1cccc2cc(-c3nc([C@H]4CC[C@H](C(=O)O)CC4)n4ncnc(N)c34)[nH]c12
In short: as §1

[18] = compound: CS(=O)(=O)CCNCc1ccc(-c2ccc3ncnc(Nc4ccc(OCc5cccc(F)c5)c(Cl)c4)c3c2)o1 [lapatinib]
In short: as §1

[19] = compound: CS(=O)(=O)N1CCN(Cc2cc3nc(-c4cccc5[nH]ncc45)nc(N4CCOCC4)c3s2)CC1 [pictilisib]
In short: as §1

[20] = compound: CN1CC[C@H](c2c(O)cc(O)c3c(=O)cc(-c4ccccc4Cl)oc23)[C@H](O)C1 [alvocidib]
In short: as §1

Measured: log2 fold change

REL (UniProt Q04864)
inactive: [1] -0.028 | [2] -0.049 | [3] 0.008 | [4] 0.052 | [5] -0.12 | [6] 0.089 | [7] -0.013 | [8] -0.046 | [9] -0.016 | [10] -0.006 | [11] 0.051 | [12] 0.004 | [13] 0.033 | [14] 0.068 | [15] 0.062 | [16] 0.148 | [17] -0.086 | [18] -0.031 | [19] -0.243

RETREG3 (UniProt Q86VR2)
inactive: [1] 0.164 | [2] 0.035 | [3] 0.022 | [4] 0.011 | [5] -0.015 | [6] 0.004 | [7] -0.011 | [8] -0.018 | [9] 0.032 | [10] -0.038 | [11] -0.136 | [12] -0.053 | [13] -0.008 | [14] 0.029 | [15] -0.141 | [16] 0.035 | [17] 0.106 | [18] 0.037 | [19] 0.102

RNF167 (UniProt Q9H6Y7)
inactive: [1] -0.03 | [2] 0.064 | [3] -0.021 | [4] 0.035 | [5] 0.059 | [7] 0.042 | [9] -0.006 | [10] -0.062 | [11] -0.032 | [12] -0.033 | [13] 0.018 | [14] -0.014 | [15] -0.084 | [16] -0.013 | [17] 0.016 | [18] 0.024 | [19] -0.029

2 entries drawn at random from the list so far, as already listed:
RNF167 (UniProt Q9H6Y7)
inactive: [1] -0.03 | [2] 0.064 | [3] -0.021 | [4] 0.035 | [5] 0.059 | [7] 0.042 | [9] -0.006 | [10] -0.062 | [11] -0.032 | [12] -0.033 | [13] 0.018 | [14] -0.014 | [15] -0.084 | [16] -0.013 | [17] 0.016 | [18] 0.024 | [19] -0.029

REL (UniProt Q04864)
inactive: [1] -0.028 | [2] -0.049 | [3] 0.008 | [4] 0.052 | [5] -0.12 | [6] 0.089 | [7] -0.013 | [8] -0.046 | [9] -0.016 | [10] -0.006 | [11] 0.051 | [12] 0.004 | [13] 0.033 | [14] 0.068 | [15] 0.062 | [16] 0.148 | [17] -0.086 | [18] -0.031 | [19] -0.243

The list goes on:

RFC3 (UniProt P40938)
inactive: [1] -0.021 | [2] 0.032 | [3] 0.023 | [4] 0.031 | [5] -0.052 | [6] -0.011 | [7] 0.007 | [8] 0.062 | [9] -0.058 | [10] 0.125 | [11] -0.046 | [12] -0.026 | [13] -0.088 | [14] -0.021 | [15] -0.042 | [16] 0.008 | [17] 0.024 | [18] 0.037 | [19] 0.035

RBM39 (UniProt Q14498)
inactive: [1] -0.027 | [2] -0.089 | [3] 0.026 | [4] -0.303 | [5] -0.16 | [6] 0.072 | [7] -0.183 | [8] 0.08 | [9] 0.011 | [10] 0.117 | [11] 0.129 | [12] -0.006 | [13] 0.262 | [14] -0.058 | [15] -0.055 | [16] -0.019 | [17] 0.009 | [18] 0.026 | [19] -0.014

RNF168 (UniProt Q8IYW5)
inactive: [1] -0.191 | [2] 0.041 | [3] 0.134 | [4] -0.015 | [7] 0.327 | [11] -0.136 | [13] -0.153 | [14] 0.202 | [15] 0.004 | [16] 0.052 | [17] 0.166 | [18] 0.021

RECQL (UniProt P46063)
inactive: [1] 0.053 | [2] -0.012 | [3] 0.021 | [4] 0.061 | [5] -0.071 | [6] -0.002 | [7] -0.013 | [8] 0.026 | [9] -0.026 | [10] 0.022 | [11] -0.091 | [12] 0.035 | [13] -0.056 | [14] -0.061 | [15] -0.038 | [16] -0.004 | [17] 0.031 | [18] 0.043 | [19] 0.024

RNF220 (UniProt Q5VTB9)
inactive: [1] 0.012 | [2] 0.022 | [3] 0.066 | [4] -0.008 | [5] -0.059 | [6] -0.043 | [7] -0.038 | [8] 0.031 | [9] 0.015 | [10] -0.004 | [11] 0.108 | [12] 0.062 | [13] -0.006 | [14] -0.062 | [15] 0.047 | [16] -0.032 | [17] 0.002 | [18] -0.006 | [19] 0.068

RETSAT (UniProt Q6NUM9)
inactive: [1] -0.088 | [2] 0.054 | [3] 0.185 | [4] 0.02 | [5] -0.05 | [6] -0.001 | [7] -0.014 | [8] 0.012 | [9] -0.075 | [10] 0.051 | [11] 0.109 | [12] 0.094 | [13] -0.077 | [14] 0.067 | [15] 0.064 | [16] 0.052 | [17] -0.093 | [18] 0.192 | [19] 0.074

RCOR3 isoform 3 (UniProt Q9P2K3)
inactive: [1] -0.142 | [2] -0.011 | [3] 0.142 | [4] -0.019 | [5] -0.073 | [6] 0.075 | [7] -0.044 | [8] 0.026 | [9] -0.062 | [10] -0.019 | [11] 0.084 | [12] -0.011 | [13] -0.046 | [14] -0.145 | [15] 0.14 | [16] 0.013 | [17] 0.011 | [18] 0 | [19] -0.106

RNF187 (UniProt Q5TA31)
inactive: [1] -0.069 | [2] 0.001 | [3] 0.196 | [4] -0.084 | [5] -0.047 | [6] -0.139 | [7] 0.05 | [8] -0.042 | [9] -0.05 | [10] 0.028 | [11] 0.003 | [12] -0.006 | [13] -0.032 | [14] -0.104 | [15] 0.047 | [16] -0.012 | [17] -0.053 | [18] -0.07 | [19] -0.037

RHOXF2 (UniProt Q9BQY4)
inactive: [1] 0.015 | [2] -0.002 | [3] 0.042 | [4] -0.021 | [5] 0.008 | [6] 0.09 | [7] -0.074 | [8] -0.018 | [9] 0.066 | [10] 0.017 | [11] 0.013 | [12] -0.039 | [13] 0.02 | [14] -0.068 | [15] -0.001 | [16] -0.021 | [17] 0.056 | [18] -0.028 | [19] 0.088

RINT1 (UniProt Q6NUQ1)
inactive: [1] -0.248 | [20] 0.109 | [3] 0.236 | [4] 0.09 | [5] -0.059 | [6] 0.246 | [7] 0.176 | [8] 0.27 | [9] -0.098 | [10] 0.106 | [12] 0.13 | [13] 0.214 | [14] 0.056 | [15] 0.134 | [16] 0.084 | [17] -0.354 | [18] -0.016 | [19] 0.121

RBM4 (UniProt Q9BWF3)
inactive: [1] 0.024 | [2] -0.1 | [3] 0.017 | [4] -0.052 | [5] -0.055 | [6] 0.157 | [7] -0.036 | [8] 0.063 | [9] 0.025 | [10] -0.071 | [11] 0.065 | [12] 0.035 | [13] 0.051 | [14] 0.038 | [15] -0.036 | [16] -0.04 | [17] -0.038 | [18] 0.024 | [19] 0.005

RDH11 (UniProt Q8TC12)
inactive: [1] -0.121 | [2] -0.019 | [3] 0.003 | [4] 0.136 | [5] 0.001 | [6] 0.113 | [7] 0.019 | [8] 0.094 | [9] -0.086 | [10] 0.087 | [11] -0.046 | [12] 0.093 | [13] 0.032 | [14] -0.01 | [15] -0.333 | [16] 0.071 | [17] 0 | [18] 0.03 | [19] 0.241

RICTOR isoform 3 (UniProt Q6R327)
inactive: [1] 0.087 | [3] 0.092 | [4] 0.114 | [6] -0.128 | [7] 0.154 | [8] 0.068 | [11] -0.028 | [13] -0.066 | [15] 0.003 | [16] 0.059 | [18] 0.186 | [19] -0.062
active: [2] 0.708

— the supplement of paper PMC10849652
